Results as given in PMC10486057.
No constants are given. Whether binding was seen depends on the method and setting. In cells and extracts the contact can be indirect. Some binding calls cover weakened binding; strength is not graded here.

Protein sequences, listed by entry. Tags and fused reporters are not part of them.
UniProt P35222: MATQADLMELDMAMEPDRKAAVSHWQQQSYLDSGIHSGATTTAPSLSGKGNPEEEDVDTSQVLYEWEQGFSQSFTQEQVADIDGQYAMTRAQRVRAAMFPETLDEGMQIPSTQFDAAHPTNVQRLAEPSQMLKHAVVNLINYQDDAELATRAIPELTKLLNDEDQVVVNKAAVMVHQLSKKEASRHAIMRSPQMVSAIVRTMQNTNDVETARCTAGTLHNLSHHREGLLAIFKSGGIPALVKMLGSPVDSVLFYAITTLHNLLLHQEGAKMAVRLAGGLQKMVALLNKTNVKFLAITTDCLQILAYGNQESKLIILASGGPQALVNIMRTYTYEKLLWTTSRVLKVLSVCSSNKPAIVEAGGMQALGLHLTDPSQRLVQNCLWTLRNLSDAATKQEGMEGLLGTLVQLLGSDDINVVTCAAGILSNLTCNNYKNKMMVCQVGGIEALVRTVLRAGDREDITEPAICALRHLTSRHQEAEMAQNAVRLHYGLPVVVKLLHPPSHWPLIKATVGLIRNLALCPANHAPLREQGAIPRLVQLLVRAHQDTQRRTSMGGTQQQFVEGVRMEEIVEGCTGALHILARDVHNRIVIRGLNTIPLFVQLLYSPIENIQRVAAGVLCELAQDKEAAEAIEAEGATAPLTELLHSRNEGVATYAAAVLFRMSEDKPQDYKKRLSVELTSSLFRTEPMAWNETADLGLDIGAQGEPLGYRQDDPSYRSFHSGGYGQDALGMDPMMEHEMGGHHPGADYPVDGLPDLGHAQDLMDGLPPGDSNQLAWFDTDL

What was measured:
[1] = target: β-catenin (human (endogenous in iPSC-CMs)) (UniProt P35222); assay: co-IP; lysate of control iPSC-CMs (Pierce Classic Magnetic IP/Co-IP Kit, 1x lysis/wash buffer with protease inhibitor); incubated with anti-β-catenin or anti-Nav1.5 antibody 2 h at room temperature, magnetic beads 1 h; eluted proteins identified by Western blot
[2] = target: voltage-gated cardiac sodium channel (Nav1.5), α-subunit encoded by SCN5A (human (endogenous in iPSC-CMs)) (UniProt Q14524); assay: as above

Substance	binding [1]	binding [2]
voltage-gated cardiac sodium channel (Nav1.5), α-subunit encoded by SCN5A (from UniProt Q14524 1-2016)	binds	
β-catenin (from UniProt P35222 1-781)		binds
